No constants are given. Whether binding was seen depends on the method and setting. In cells and extracts the contact can be indirect. Some binding calls cover weakened binding; strength is not graded here. For some assays here: Tags and fused reporters may be left off the sequences shown.
Assays:
[1] = target: T1, Flag-tagged FANCJ wild type (human, UniProt Q9BX63 1-1249); test: co-IP; anti-Flag M2 agarose beads; whole extracts of HEK 293T cells transfected with Flag-FANCJ, sonicated and Benzonase-treated; 150 mM NaCl, 0.25% Triton X-100, 4 °C; AND-1 band normalised to pulled-down FANCJ, WT = 100%
T1 construct: FANCJ (BRIP1, BACH1) DNA helicase, human, open reading frame; purified as full-length protein; Plasmid from Hisao Masai (Uno et al, 2012); also called FANCJ WT; Flag-FANCJ WT; source: HEK 293T, transiently transfected (pCSII-EF-MCS): in whole-cell extract or nuclear fraction; also purified (anti-Flag M2 agarose, 3x Flag-peptide elution)
T1 sequence (looked up): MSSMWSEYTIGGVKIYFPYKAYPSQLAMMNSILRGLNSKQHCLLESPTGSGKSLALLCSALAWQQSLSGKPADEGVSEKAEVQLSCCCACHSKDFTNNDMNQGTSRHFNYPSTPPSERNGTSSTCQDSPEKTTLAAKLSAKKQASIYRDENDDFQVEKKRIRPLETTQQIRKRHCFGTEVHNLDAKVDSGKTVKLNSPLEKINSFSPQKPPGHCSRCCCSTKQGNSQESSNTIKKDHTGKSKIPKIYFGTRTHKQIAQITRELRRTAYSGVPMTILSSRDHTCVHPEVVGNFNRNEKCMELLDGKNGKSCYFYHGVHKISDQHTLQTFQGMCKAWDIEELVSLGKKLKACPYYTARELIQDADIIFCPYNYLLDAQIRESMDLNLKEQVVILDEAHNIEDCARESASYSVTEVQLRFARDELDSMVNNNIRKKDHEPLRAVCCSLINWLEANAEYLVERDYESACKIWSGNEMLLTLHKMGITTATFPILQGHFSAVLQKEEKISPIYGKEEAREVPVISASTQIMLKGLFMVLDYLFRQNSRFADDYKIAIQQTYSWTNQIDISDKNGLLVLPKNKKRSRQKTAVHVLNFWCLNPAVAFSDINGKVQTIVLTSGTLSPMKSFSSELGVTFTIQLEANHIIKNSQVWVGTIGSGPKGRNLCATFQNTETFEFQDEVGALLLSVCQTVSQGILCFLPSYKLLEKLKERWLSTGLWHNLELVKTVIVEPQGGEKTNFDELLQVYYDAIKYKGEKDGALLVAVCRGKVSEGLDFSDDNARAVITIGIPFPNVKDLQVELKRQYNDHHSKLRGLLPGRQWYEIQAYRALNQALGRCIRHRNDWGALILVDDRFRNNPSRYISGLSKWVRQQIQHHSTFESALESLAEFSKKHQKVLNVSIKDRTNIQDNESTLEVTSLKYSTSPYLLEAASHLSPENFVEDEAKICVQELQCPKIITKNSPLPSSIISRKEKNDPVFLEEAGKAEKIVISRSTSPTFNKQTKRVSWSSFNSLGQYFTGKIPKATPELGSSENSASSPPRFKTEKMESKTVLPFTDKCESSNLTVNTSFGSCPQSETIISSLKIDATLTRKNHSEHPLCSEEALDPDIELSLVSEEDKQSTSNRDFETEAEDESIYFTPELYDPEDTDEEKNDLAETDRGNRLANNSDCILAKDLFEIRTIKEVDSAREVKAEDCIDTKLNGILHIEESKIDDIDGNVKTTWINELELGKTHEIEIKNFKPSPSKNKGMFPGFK

[2] = target: T2, endogenous CDC45 (human (endogenous in HEK 293T)) (UniProt O75419); test: co-IP; anti-CDC45 rabbit IgG on Protein A Sepharose beads; nuclear fraction of HEK 293T cells transfected with Flag-FANCJ and released in S phase after thymidine block, sonicated and nuclease-treated; FANCJ normalised to pulled-down CDC45
T2 sequence: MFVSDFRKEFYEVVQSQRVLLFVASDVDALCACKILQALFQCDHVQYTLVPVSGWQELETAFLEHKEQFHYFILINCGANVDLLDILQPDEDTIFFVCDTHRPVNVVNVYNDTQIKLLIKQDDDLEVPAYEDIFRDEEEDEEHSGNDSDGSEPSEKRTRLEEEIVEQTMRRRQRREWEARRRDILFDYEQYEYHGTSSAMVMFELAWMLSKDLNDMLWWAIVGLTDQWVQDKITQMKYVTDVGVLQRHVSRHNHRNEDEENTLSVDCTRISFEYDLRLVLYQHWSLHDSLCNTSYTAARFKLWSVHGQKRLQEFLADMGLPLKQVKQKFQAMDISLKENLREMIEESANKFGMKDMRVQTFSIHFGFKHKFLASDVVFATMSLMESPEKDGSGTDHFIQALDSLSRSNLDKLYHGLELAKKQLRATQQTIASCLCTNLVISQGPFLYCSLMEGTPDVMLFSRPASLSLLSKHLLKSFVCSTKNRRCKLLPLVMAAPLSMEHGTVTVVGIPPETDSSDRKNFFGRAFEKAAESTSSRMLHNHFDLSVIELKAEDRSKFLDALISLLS

binding [1]: binds | binding [2]: binds
B1: endogenous AND-1 (HEK 293T) (protein, UniProt O75717 1-1129)
chain: MPATRKPMRYGHTEGHTEVCFDDSGSFIVTCGSDGDVRIWEDLDDDDPKFINVGEKAYSCALKSGKLVTAVSNNTIQVHTFPEGVPDGILTRFTTNANHVVFNGDGTKIAAGSSDFLVKIVDVMDSSQQKTFRGHDAPVLSLSFDPKDIFLASASCDGSVRVWQISDQTCAISWPLLQKCNDVINAKSICRLAWQPKSGKLLAIPVEKSVKLYRRESWSHQFDLSDNFISQTLNIVTWSPCGQYLAAGSINGLIIVWNVETKDCMERVKHEKGYAICGLAWHPTCGRISYTDAEGNLGLLENVCDPSGKTSSSKVSSRVEKDYNDLFDGDDMSNAGDFLNDNAVEIPSFSKGIINDDEDDEDLMMASGRPRQRSHILEDDENSVDISMLKTGSSLLKEEEEDGQEGSIHNLPLVTSQRPFYDGPMPTPRQKPFQSGSTPLHLTHRFMVWNSIGIIRCYNDEQDNAIDVEFHDTSIHHATHLSNTLNYTIADLSHEAILLACESTDELASKLHCLHFSSWDSSKEWIIDLPQNEDIEAICLGQGWAAAATSALLLRLFTIGGVQKEVFSLAGPVVSMAGHGEQLFIVYHRGTGFDGDQCLGVQLLELGKKKKQILHGDPLPLTRKSYLAWIGFSAEGTPCYVDSEGIVRMLNRGLGNTWTPICNTREHCKGKSDHYWVVGIHENPQQLRCIPCKGSRFPPTLPRPAVAILSFKLPYCQIATEKGQMEEQFWRSVIFHNHLDYLAKNGYEYEESTKNQATKEQQELLMKMLALSCKLEREFRCVELADLMTQNAVNLAIKYASRSRKLILAQKLSELAVEKAAELTATQVEEEEEEEDFRKKLNAGYSNTATEWSQPRFRNQVEEDAEDSGEADDEEKPEIHKPGQNSFSKSTNSSDVSAKSGAVTFSSQGRVNPFKVSASSKEPAMSMNSARSTNILDNMGKSSKKSTALSRTTNNEKSPIIKPLIPKPKPKQASAASYFQKRNSQTNKTEEVKEENLKNVLSETPAICPPQNTENQRPKTGFQMWLEENRSNILSDNPDFSDEADIIKEGMIRFRVLSTEERKVWANKAKGETASEGTEAKKRKRVVDESDETENQEEKAKENLNLSKKQKPLDFSTNQKLSAFAFKQE
